PubChem BioAssay AID1159508 | Drosophila RNAi Screening Center | 2015
The whole screen tested 812 reagents; below is a random part of them. In the full data, 18 (2.2%) are marked active. 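Calls include both increased and decreased ATP; roughly one in four reagents has no third replicate value.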 Not stated in the record: the amount of reagent.

Screen: 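How silencing genes for RNA-binding proteins changes cellular ATP without other treatment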
System: Drosophila S2R+ cells
Knock-down reagent: long dsRNA against Drosophila genes
Timing: 5 days
Read-out: 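Luminescent ATP signal as a proxy for cell fitness after 5 days of RNAi, given as a z-score in each replicate and averaged over replicates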
Scale: mean ATP z-score and ATP z-score: higher = more total ATP luminescence
Rule for the call: In these data the active calls have mean ATP z-score at about -2 or lower, or at about 2 or higher
Calls: active = strong ATP change (up or down); inactive = no strong ATP change

gene knocked down,amplicon,mean ATP z-score,"ATP z-score, replicate 1","ATP z-score, replicate 2","ATP z-score, replicate 3",outcome
abs (abstrakt),DRSC12372,0.453,0.00382,0.557,0.712,inactive
abs (abstrakt),DRSC31883,0.151,-0.178,-0.0626,0.666,inactive
CG14100,DRSC10101,-0.1,-0.519,-0.312,0.55,inactive
CG14100,DRSC42689,-0.237,-0.52,-0.144,-0.00165,inactive
Gar1 (Gar1 ribonucleoprotein),DRSC25331,0.497,0.0927,0.291,1.01,inactive
Gar1 (Gar1 ribonucleoprotein),DRSC35313,-0.182,-0.436,-0.0967,0.0228,inactive
yps (ypsilon schachtel),DRSC25035,-1.07,-1.36,-0.866,-0.767,inactive
yps (ypsilon schachtel),DRSC40408,0.0103,-0.515,0.0795,0.464,inactive
nito (spenito),DRSC05943,0.676,0.0363,0.608,1.25,inactive
nito (spenito),DRSC35891,-0.637,-0.67,-0.658,-0.462,inactive
ssx,DRSC23454,-0.906,-1.02,-0.839,-0.684,inactive
ssx,DRSC38980,0.156,-0.227,0.0789,0.587,inactive
BicD (Bicaudal D),DRSC02006,0.092,-0.0477,0.22,,inactive
NAT1,DRSC30053,-1.61,-1.63,-1.39,,inactive
NAT1,DRSC33055,-0.834,-0.883,-0.736,-0.723,inactive
Hexim (Hexamethylene bisacetamide inducible),DRSC15490,-0.257,-0.562,-0.241,0.0832,inactive
Hexim (Hexamethylene bisacetamide inducible),DRSC42700,-0.176,-0.275,-0.245,0.0248,inactive
LSm3 (Like Sm 3),DRSC15920,0.233,-0.407,0.406,0.654,inactive
LSm3 (Like Sm 3),DRSC42711,0.0346,-0.182,-0.0948,0.374,inactive
cocoon,DRSC10916,-0.828,-1.12,-0.725,-0.481,inactive
cocoon,DRSC28623,-0.0719,-0.588,0.0631,0.323,inactive
Rbp9 (RNA-binding protein 9),DRSC29834,-1.01,-0.946,-0.941,,inactive
Rbp9 (RNA-binding protein 9),DRSC33095,-0.0418,-0.157,0.0788,,inactive
SmE (Small ribonucleoprotein particle protein SmE),DRSC02680,0.177,-0.431,-0.183,1.11,inactive
SmE (Small ribonucleoprotein particle protein SmE),DRSC31785,1.17,-0.573,0.859,3.01,inactive
eIF3f1 (eukaryotic translation initiation factor 3 subunit f1),DRSC12328,0.916,0.616,0.871,1.09,inactive
eIF3f1 (eukaryotic translation initiation factor 3 subunit f1),DRSC32095,0.508,0.114,0.412,0.901,inactive
fne (found in neurons),DRSC25129,-0.168,-0.244,-0.212,-0.016,inactive
fne (found in neurons),DRSC33310,0.559,-0.363,-0.316,2.25,inactive
CG7903,DRSC16338,0.0757,-0.161,0.303,,inactive
CG7903,DRSC29953,0.749,0.657,0.744,,inactive
tsu (tsunagi),DRSC07265,-0.617,-0.787,-0.367,,inactive
tsu (tsunagi),DRSC31985,0.406,-0.314,0.628,0.825,inactive
qkr58E-2 (quaking related 58E-2),DRSC04710,-0.116,-0.187,-0.0314,,inactive
qkr58E-2 (quaking related 58E-2),DRSC25296,0.184,0.127,0.137,0.253,inactive
su(sable) (suppressor of sable),DRSC18839,1.12,0.422,1.67,,inactive
su(sable) (suppressor of sable),DRSC34942,2,1.33,2.42,,active
Dbp73D (Dead box protein 73D),DRSC11142,-0.138,-0.353,0.0943,,inactive
Dbp73D (Dead box protein 73D),DRSC35683,0.85,-0.0621,0.916,1.53,inactive
elav (embryonic lethal abnormal vision),DRSC18772,1.27,1.03,1.34,,inactive
elav (embryonic lethal abnormal vision),DRSC42719,-0.713,-1,-0.511,-0.486,inactive
D (Dichaete),DRSC25367,-0.448,-0.422,-0.417,,inactive
D (Dichaete),DRSC40488,0.484,-0.317,0.612,1.06,inactive
CG7879,DRSC25308,0.0819,-0.466,0.188,0.508,inactive
CG7879,DRSC40897,-0.834,-0.79,-0.772,,inactive
TBPH (TAR DNA-binding protein-43 homolog),DRSC04660,0.153,-0.0194,0.15,0.3,inactive
TBPH (TAR DNA-binding protein-43 homolog),DRSC28032,0.406,0.0854,0.26,0.794,inactive
CG8778,DRSC07264,-0.244,-0.308,-0.202,-0.176,inactive
CG8778,DRSC42674,-0.564,-0.821,-0.461,-0.301,inactive
CG11123,DRSC06040,-0.171,-0.546,0.227,,inactive
CG11123,DRSC28420,-0.0809,-0.324,0.173,,inactive
bel (belle),DRSC31929,-1.33,-1.47,-1.24,-1.02,inactive
bel (belle),DRSC31930,-0.536,-0.996,-0.502,-0.0081,inactive
gw (gawky),DRSC17135,2.19,1.92,2.18,,active
gw (gawky),DRSC38395,0.603,0.327,0.444,0.921,inactive
Vps36 (Vacuolar protein sorting 36),DRSC09785,0.362,0.0802,0.305,0.63,inactive
Vps36 (Vacuolar protein sorting 36),DRSC37364,-0.0105,-0.226,-0.0366,0.233,inactive
l(3)07882 (lethal (3) 07882),DRSC15882,0.877,0.665,0.976,,inactive
l(3)07882 (lethal (3) 07882),DRSC42642,-0.116,-0.4,-0.303,0.377,inactive
eIF3g2 (eukaryotic translation initiation factor 3 subunit g2),DRSC14275,0.18,0.0949,0.154,0.256,inactive
eIF3g2 (eukaryotic translation initiation factor 3 subunit g2),DRSC28960,0.374,-0.258,0.565,0.742,inactive
Pym (Partner of Y14 and Mago),DRSC23017,-1.25,-1.49,-1.05,-0.971,inactive
Pym (Partner of Y14 and Mago),DRSC40394,0.51,0.182,0.418,0.83,inactive
mEFTs (mitochondrial translation elongation factor Ts),DRSC02953,-0.23,-0.56,-0.0519,-0.0332,inactive
mEFTs (mitochondrial translation elongation factor Ts),DRSC30019,0.406,0.0919,0.26,0.787,inactive
Dcr-1 (Dicer-1),DRSC15646,0.585,0.158,0.243,1.24,inactive
Dcr-1 (Dicer-1),DRSC27421,-0.589,-0.664,-0.438,,inactive
Pof (Painting of fourth),DRSC04405,-0.107,-0.633,-0.01,0.342,inactive
Pof (Painting of fourth),DRSC35955,0.382,-0.336,0.274,1.13,inactive
kz (kurz),DRSC18786,0.662,0.108,0.864,0.885,inactive
kz (kurz),DRSC35807,0.385,-0.0645,0.503,0.642,inactive
Rhau (RHAU helicase),DRSC03200,0.151,-0.0171,0.299,,inactive
Rhau (RHAU helicase),DRSC27042,0.608,0.52,0.59,0.599,inactive
Paip1 (Poly(A) binding protein interacting protein 1),DRSC23561,-0.176,-0.308,-0.134,-0.0506,inactive
Paip1 (Poly(A) binding protein interacting protein 1),DRSC30789,-0.973,-1.14,-0.799,-0.791,inactive
CG7849,DRSC04895,-1.04,-1.02,-0.935,,inactive
CG7849,DRSC26457,-1.58,-1.56,-1.4,,inactive

Copied from the list.
BicD (Bicaudal D) [DRSC02006], mean ATP z-score: 0.092
Under “mean ATP z-score”, CG14100 [DRSC10101] shows -0.1
Under “outcome”, eIF3f1 (eukaryotic translation initiation factor 3 subunit f1) [DRSC12328] shows inactive
eIF3f1 (eukaryotic translation initiation factor 3 subunit f1) [DRSC32095], ATP z-score, replicate 3 → 0.901
Under “ATP z-score, replicate 1”, D (Dichaete) [DRSC25367] is entered as -0.422
D (Dichaete) [DRSC40488], ATP z-score, replicate 1 → -0.317
